Experimental data reported in PubChem BioAssay (Tox21).
The shares of active, inactive and inconclusive entries below differ from those in the screen. Where the call is inconclusive, the potency comes from a doubtful curve fit. Calls of active or inactive are those of the source. Unless noted, the call rests on the fitted dose curve; in most records, active means well fitted cell-killing curve with a large enough effect in the repeat runs; inconclusive means weak or mixed curves, or effect the other way; inactive means no such curve, though single readings can be large or run the other way.

The chains behind the UniProt entries cited, without tags or fusion partners. Where a name states a change or a piece, a line headed by the entry shows the natural chain unless it says otherwise.
UniProt P11473: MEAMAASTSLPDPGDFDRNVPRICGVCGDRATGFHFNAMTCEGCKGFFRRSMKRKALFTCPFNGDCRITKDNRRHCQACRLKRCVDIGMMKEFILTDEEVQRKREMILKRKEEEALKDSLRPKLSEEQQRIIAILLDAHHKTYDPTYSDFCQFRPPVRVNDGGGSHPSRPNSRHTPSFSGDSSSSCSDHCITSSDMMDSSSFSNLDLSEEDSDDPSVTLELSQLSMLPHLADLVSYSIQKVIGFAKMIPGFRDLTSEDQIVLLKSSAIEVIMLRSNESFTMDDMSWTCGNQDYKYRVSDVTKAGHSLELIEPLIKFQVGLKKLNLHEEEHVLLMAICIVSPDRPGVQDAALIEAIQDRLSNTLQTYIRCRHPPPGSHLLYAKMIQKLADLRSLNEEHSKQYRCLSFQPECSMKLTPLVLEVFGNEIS

Target: Vitamin D3 receptor (Homo sapiens) (UniProt P11473)
Experiment: qHTS assay to identify small molecule antagonists of the vitamin D receptor (VDR) signaling pathway (AID 743223; active means well fitted inhibition curve with a large enough effect in the signal ratio in the repeat runs, not every such curve was filed as active; inconclusive means weak or mixed curves, or effect the other way; inactive means no such curve, though single readings can be large or run the other way; the % refers to the signal ratio; on activity change, negative = inhibition: on the % scale 0 is the no-effect control and ±100 the full control effect)
Conditions: VDR-UAS-bla HEK293T, beta-lactamase FRET ratio, 16 h; activity change, negative = inhibition: at 61 µM (top of the series) unless noted
Procedure, shortened: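 Cells carrying a VDR-driven beta-lactamase reporter (VDR-bla) were co-treated with compound and 3 nM final 1alpha,25-dihydroxyvitamin D3 for 16 h at 37C; reporter activity was measured as FRET substrate fluorescence after 2 h at room temperature.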
Potency means the concentration at half of the fitted maximal effect.

| Compound | activity change, negative = inhibition | Potency |
| --- | --- | --- |
| OCC(CBr)(CBr)CBr | inconclusive: -17.9% | – |
| CO[C@@]1(NC(=O)CSCC#N)C(=O)N2C(C(=O)O)=C(CSc3nnnn3C)CS[C@@H]21 | inconclusive: 1.41% | – |
| CS(C)=O | – | inconclusive: 0.0138 µM [activator, full curve, poor fit] |
| CO/N=C(\C(=O)O)c1csc(NC(=O)CCl)n1 | inactive: 2.27% | – |
| O=C(O)C(=O)O | inconclusive: 15.2% | – |
| CCCCCCCCCCCCOCCOS(=O)(=O)O | inconclusive: 17.6% | – |
| Cc1c(N(C)CS(=O)(=O)O)c(=O)n(-c2ccccc2)n1C | inconclusive: 23.6% | – |
| CCC(=O)O[C@@H]1C[C@H]2CC[C@]1(C)C2(C)C | inconclusive: 25.3% | – |
| Cc1cc2c(s1)Nc1ccccc1N=C2N1CCN(C)CC1 | inactive: -5.6% | – |
| O=C1N(c2ccccc2)c2ccccc2C1(Cc1ccncc1)Cc1ccncc1 | inconclusive: 21.8% | – |
| O=C1OC(=O)C2C3C=CC(C3)C12 (configuration not stated) | inactive: -4.57% | – |
| O=C(O)c1ccccc1Nc1cc(Cl)ccc1C(=O)O | inactive: -6.33% [at 28.5 µM] | – |
| CC1=C(CC(=O)O)c2cc(F)ccc2/C1=C\c1ccc(S(C)(=O)=O)cc1 | – | inconclusive: 16.9 µM [fluorescent, partial curve, poor fit] |
| CC(C)(C)c1ccc(OC(=O)c2ccccc2O)cc1 | inactive: -12.4% | – |
| CC(=O)Oc1cc(C(C)C)c(OCCN(C)C)cc1C | inactive: 2.73% | – |
| c1ccc2cnncc2c1 | inconclusive: -7.13% | – |

An excerpt of the results above:

| Compound | activity change, negative = inhibition | Potency |
| --- | --- | --- |
| CO/N=C(\C(=O)O)c1csc(NC(=O)CCl)n1 | inactive: 2.27% | – |
| O=C(O)C(=O)O | inconclusive: 15.2% | – |

Test system: not listed separately
Experiment: qHTS assay to identify small molecule agonists of the vitamin D receptor (VDR) signaling pathway - cell viability counter screen (AID 743224); further: nearly all actives have a fitted effect of over 50% in size
Conditions: VDR-bla HEK293T viability, CellTiter-Glo luminescence, 16 h; activity change, negative = cytotoxicity: at 62.6 µM (top of the series)
Procedure, shortened: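 Luminescence from CellTiter-Glo, read after 30 min at room temperature, reports viability of VDR-bla cells treated with compounds for 16 h at 37C in the wells used for the beta-lactamase FRET read.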

| Compound | Potency |
| --- | --- |
| CCC(CC)Nc1ccc(C)c(C)c1 | inconclusive: 54.9 µM [cytotoxic, single point] |
| CS(C)=O | inconclusive: 54.9 µM [cytotoxic, single point] |
| O=C(O)C(=O)O | inconclusive: 3.48 µM [cytotoxic, single point] |
| CCCCCCCCCCCCOCCOS(=O)(=O)O | inconclusive: 13.8 µM [cytotoxic, full curve] |
| O=C(O)c1ccccc1Nc1cc(Cl)ccc1C(=O)O | inconclusive: 16.4 µM [cytotoxic, single point] |
| CC(C)(C)c1ccc(OC(=O)c2ccccc2O)cc1 | inconclusive: 61.7 µM [cytotoxic, single point] |
